Source: patent US20250283871A1, “COMPOSITIONS AND METHODS FOR MODULATING THE INTERACTION BETWEEN SS18-SSX FUSION ONCOPROTEIN AND NUCLEOSOMES” (Dana-Farber Cancer Institute, Inc., priority 2020, published 2025)

System: BAF complex subunits and histone proteins
Assay: Mass spectrometry proteomics of purified HA-SS18 WT and HA-SS18-SSX1 complexes (Tables 5A-5E)
Set-up: species or system human
Conditions: HEK-293T
[1] = HA-SS18SSX1_NE_peptides (Table 5B), HA-SS18-SSX1 BAF complex purification from soluble nuclear extract
[2] = HA-SS18WT_NE_peptides: proteins co-purified with HA-SS18 WT from nuclear extract (NE)
[3] = HA-SS18SSX1 purification, NE (soluble nuclear extract) fraction, peptides per identified protein
[4] = HA-SS18WT_NE_peptides: HA-SS18 WT complexes purified from nuclear extract (NE), label = protein identified (Gene Symbol)

Molecule	Total (peptides) [1]	Unique (peptides) [1]	also measured
ZIC2 (protein, UniProt O95409 1-532, looked up) Zinc finger protein ZIC 2: MLLDAGPQFPAIGVGSFARHHHHSAAAAAAAAAEMQDRELSLAAAQNGFVDSAAAHMGAFKLNPGAHELSPGQSSAFTSQGPGAYPGSAAAAAAAAALGPHAAHVGSYSGPPFNSTRDFLFRSRGFGDSAPGGGQHGLFGPGAGGLHHAHSDAQGHLLFPGLPEQHGPHGSQNVLNGQMRLGLPGEVFGRSEQYRQVASPRTDPYSAAQLHNQYGPMNMNMGMNMAAAAAHHHHHHHHHPGAFFRYMRQQCIKQELICKWIDPEQLSNPKKSCNKTFSTMHELVTHVSVEHVGGPEQSNHVCFWEECPREGKPFKAKYKLVNHIRVHTGEKPFPCPFPGCGKVFARSENLKIHKRTHTGEKPFQCEFEGCDRRFANSSDRKKHMHVHTSDKPYLCKMCDKSYTHPSSLRKHMKVHESSPQGSESSPAASSGYESSTPPGLVSPSAEPQSSSNLSPAAAAAAAAAAAAAAAVSAVHRGGGSGSGGAGGGSGGGSGSGGGGGGAGGGGGGSSGGGSGTAGGHSGLSSNFNEWYV	1	1	–
HSDL1 (protein, UniProt Q3SXM5 2-330, looked up) Inactive hydroxysteroid …: AAVDSFYLLYREIARSCNCYMEALALVGAWYTARKSITVICDFYSLIRLHFIPRLGSRADLIKQYGRWAVVSGATDGIGKAYAEELASRGLNIILISRNEEKLQVVAKDIADTYKVETDIIVADFSSGREIYLPIREALKDKDVGILVNNVGVFYPYPQYFTQLSEDKLWDIINVNIAAASLMVHVVLPGMVERKKGAIVTISSGSCCKPTPQLAAFSASKAYLDHFSRALQYEYASKGIFVQSLIPFYVATSMTAPSNFLHRCSWLVPSPKVYAHHAVSTLGISKRTTGYWSHSIQFLFAQYMPEWLWVWGANILNRSLRKEALSCTA	1	1	–
COPG2 (protein, UniProt Q9UBF2 1-871, looked up) Coatomer subunit gamma-2: MIKKFDKKDEESGSGSNPFQHLEKSAVLQEARIFNETPINPRRCLHILTKILYLLNQGEHFGTTEATEAFFAMTRLFQSNDQTLRRMCYLTIKEMATISEDVIIVTSSLTKDMTGKEDVYRGPAIRALCRITDGTMLQAIERYMKQAIVDKVSSVSSSALVSSLHMMKISYDVVKRWINEAQEAASSDNIMVQYHALGVLYHLRKNDRLAVSKMLNKFTKSGLKSQFAYCMLIRIASRLLKETEDGHESPLFDFIESCLRNKHEMVIYEAASAIIHLPNCTARELAPAVSVLQLFCSSPKPALRYAAVRTLNKVAMKHPSAVTACNLDLENLITDSNRSIATLAITTLLKTGSESSVDRLMKQISSFVSEISDEFKVVVVQAISALCQKYPRKHSVMMTFLSNMLRDDGGFEYKRAIVDCIISIVEENPESKEAGLAHLCEFIEDCEHTVLATKILHLLGKEGPRTPVPSKYIRFIFNRVVLENEAVRAAAVSALAKFGAQNESLLPSILVLLQRCMMDTDDEVRDRATFYLNVLQQRQMALNATYIFNGLTVSVPGMEKALHQYTLEPSEKPFDMKSIPLAMAPVFEQKAEITLVATKPEKLAPSRQDIFQEQLAAIPEFLNIGPLFKSSEPVQLTEAETEYFVRCIKHMFTNHIVFQFDCTNTLNDQLLEKVTVQMEPSDSYEVLSCIPAPSLPYNQPGICYTLVRLPDDDPTAVAGSFSCTMKFTVRDCDPNTGVPDEDGYDDEYVLEDLEVTVSDHIQKVLKPNFAAAWEEVGDTFEKEETFALSSTKTLEEAVNNIITFLGMQPCERSDKVPENKNSHSLYLAGIFRGGYDLLVRSRLALADGVTMQVTVRSKERTPVDVILASVG	1	1	–
STT3B (protein, UniProt Q8TCJ2 2-826, looked up) Dolichyl-diphosphooligosacchar …: AEPSAPESKHKSSLNSSPWSGLMALGNSRHGHHGPGAQCAHKAAGGAAPPKPAPAGLSGGLSQPAGWQSLLSFTILFLAWLAGFSSRLFAVIRFESIIHEFDPWFNYRSTHHLASHGFYEFLNWFDERAWYPLGRIVGGTVYPGLMITAGLIHWILNTLNITVHIRDVCVFLAPTFSGLTSISTFLLTRELWNQGAGLLAACFIAIVPGYISRSVAGSFDNEGIAIFALQFTYYLWVKSVKTGSVFWTMCCCLSYFYMVSAWGGYVFIINLIPLHVFVLLLMQRYSKRVYIAYSTFYIVGLILSMQIPFVGFQPIRTSEHMAAAGVFALLQAYAFLQYLRDRLTKQEFQTLFFLGVSLAAGAVFLSVIYLTYTGYIAPWSGRFYSLWDTGYAKIHIPIIASVSEHQPTTWVSFFFDLHILVCTFPAGLWFCIKNINDERVFVALYAISAVYFAGVMVRLMLTLTPVVCMLSAIAFSNVFEHYLGDDMKRENPPVEDSSDEDDKRNQGNLYDKAGKVRKHATEQEKTEEGLGPNIKSIVTMLMLMLLMMFAVHCTWVTSNAYSSPSVVLASYNHDGTRNILDDFREAYFWLRQNTDEHARVMSWWDYGYQIAGMANRTTLVDNNTWNNSHIALVGKAMSSNETAAYKIMRTLDVDYVLVIFGGVIGYSGDDINKFLWMVRIAEGEHPKDIRESDYFTPQGEFRVDKAGSPTLLNCLMYKMSYYRFGEMQLDFRTPPGFDRTRNAEIGNKDIKFKHLEEAFTSEHWLVRIYKVKAPDNRETLDHKPRVTNIFPKQKYLSKKTTKRKRGYIKNKLVFKKGKKISKKTV	1	1	Total (peptides) [2]: 1; Unique (peptides) [2]: 1
POLR3A (protein, UniProt O14802 1-1390, looked up) DNA-directed RNA polymerase …: MVKEQFRETDVAKKISHICFGMKSPEEMRQQAHIQVVSKNLYSQDNQHAPLLYGVLDHRMGTSEKDRPCETCGKNLADCLGHYGYIDLELPCFHVGYFRAVIGILQMICKTCCHIMLSQEEKKQFLDYLKRPGLTYLQKRGLKKKISDKCRKKNICHHCGAFNGTVKKCGLLKIIHEKYKTNKKVVDPIVSNFLQSFETAIEHNKEVEPLLGRAQENLNPLVVLNLFKRIPAEDVPLLLMNPEAGKPSDLILTRLLVPPLCIRPSVVSDLKSGTNEDDLTMKLTEIIFLNDVIKKHRISGAKTQMIMEDWDFLQLQCALYINSELSGIPLNMAPKKWTRGFVQRLKGKQGRFRGNLSGKRVDFSGRTVISPDPNLRIDEVAVPVHVAKILTFPEKVNKANINFLRKLVQNGPEVHPGANFIQQRHTQMKRFLKYGNREKMAQELKYGDIVERHLIDGDVVLFNRQPSLHKLSIMAHLARVKPHRTFRFNECVCTPYNADFDGDEMNLHLPQTEEAKAEALVLMGTKANLVTPRNGEPLIAAIQDFLTGAYLLTLKDTFFDRAKACQIIASILVGKDEKIKVRLPPPTILKPVTLWTGKQIFSVILRPSDDNPVRANLRTKGKQYCGKGEDLCANDSYVTIQNSELMSGSMDKGTLGSGSKNNIFYILLRDWGQNEAADAMSRLARLAPVYLSNRGFSIGIGDVTPGQGLLKAKYELLNAGYKKCDEYIEALNTGKLQQQPGCTAEETLEALILKELSVIRDHAGSACLRELDKSNSPLTMALCGSKGSFINISQMIACVGQQAISGSRVPDGFENRSLPHFEKHSKLPAAKGFVANSFYSGLTPTEFFFHTMAGREGLVDTAVKTAETGYMQRRLVKSLEDLCSQYDLTVRSSTGDIIQFIYGGDGLDPAAMEGKDEPLEFKRVLDNIKAVFPCPSEPALSKNELILTTESIMKKSEFLCCQDSFLQEIKKFIKGVSEKIKKTRDKYGINDNGTTEPRVLYQLDRITPTQVEKFLETCRDKYMRAQMEPGSAVGALCAQSIGEPGTQMTLKTFHFAGVASMNITLGVPRIKEIINASKAISTPIITAQLDKDDDADYARLVKGRIEKTLLGEISEYIEEVFLPDDCFILVKLSLERIRLLRLEVNAETVRYSICTSKLRVKPGDVAVHGEAVVCVTPRENSKSSMYYVLQFLKEDLPKVVVQGIPEVSRAVIHIDEQSGKEKYKLLVEGDNLRAVMATHGVKGTRTTSNNTYEVEKTLGIEAARTTIINEIQYTMVNHGMSIDRRHVMLLSDLMTYKGEVLGITRFGLAKMKESVLMLASFEKTADHLFDAAYFGQKDSVCGVSECIIMGIPMNIGTGLFKLLHKADRDPNPPKRPLIFDTNEFHIPLVT	1	1	–
DDX23 (protein, UniProt Q9BUQ8 1-820, looked up) Probable ATP-dependent RNA …: MAGELADKKDRDASPSKEERKRSRTPDRERDRDRDRKSSPSKDRKRHRSRDRRRGGSRSRSRSRSKSAERERRHKERERDKERDRNKKDRDRDKDGHRRDKDRKRSSLSPGRGKDFKSRKDRDSKKDEEDEHGDKKPKAQPLSLEELLAKKKAEEEAEAKPKFLSKAEREAEALKRRQQEVEERQRMLEEERKKRKQFQDLGRKMLEDPQERERRERRERMERETNGNEDEEGRQKIREEKDKSKELHAIKERYLGGIKKRRRTRHLNDRKFVFEWDASEDTSIDYNPLYKERHQVQLLGRGFIAGIDLKQQKREQSRFYGDLMEKRRTLEEKEQEEARLRKLRKKEAKQRWDDRHWSQKKLDEMTDRDWRIFREDYSITTKGGKIPNPIRSWKDSSLPPHILEVIDKCGYKEPTPIQRQAIPIGLQNRDIIGVAETGSGKTAAFLIPLLVWITTLPKIDRIEESDQGPYAIILAPTRELAQQIEEETIKFGKPLGIRTVAVIGGISREDQGFRLRMGCEIVIATPGRLIDVLENRYLVLSRCTYVVLDEADRMIDMGFEPDVQKILEHMPVSNQKPDTDEAEDPEKMLANFESGKHKYRQTVMFTATMPPAVERLARSYLRRPAVVYIGSAGKPHERVEQKVFLMSESEKRKKLLAILEQGFDPPIIIFVNQKKGCDVLAKSLEKMGYNACTLHGGKGQEQREFALSNLKAGAKDILVATDVAGRGIDIQDVSMVVNYDMAKNIEDYIHRIGRTGRAGKSGVAITFLTKEDSAVFYELKQAILESPVSSCPPELANHPDAQHKPGTILTKKRREETIFA	–	–	Total (total peptides) [3]: 13; Unique (unique peptides) [3]: 13; Total (peptides) [4]: 11; Unique (peptides) [4]: 11
ARL10 (protein, UniProt Q8N8L6 1-244, looked up) ADP-ribosylation factor-like …: MAPRPLGPLVLALGGAAAVLGSVLFILWKTYFGRGRERRWDRGEAWWGAEAARLPEWDEWDPEDEEDEEPALEELEQREVLVLGLDGAGKSTFLRVLSGKPPLEGHIPTWGFNSVRLPTKDFEVDLLEIGGSQNLRFYWKEFVSEVDVLVFVVDSADRLRLPWARQELHKLLDKDPDLPVVVVANKQDLSEAMSMGELQRELGLQAIDNQREVFLLAASIAPAGPTFEEPGTVHIWKLLLELLS	1	1	–
